The whole screen tested about 230,000 compounds, of which about 310 (0.13%) were called active. Inconclusive means that the source gave no clear call. Such entries were picked first, then a sample of the others. Calls follow the shape of the dose curve; as a rule, active = well fitted activation curve with a large enough effect; inconclusive = small, poorly fitted or top-dose-only effect; inactive = no such curve, though single readings can be large or run the other way. Potencies beside an inconclusive call are fits to weak or partial responses and may not hold up.
Assay: qHTS Multiplex Assay to Identify Dual Action Probes in a Cell Model of Huntington: Cytoprotection (ATP); also: nearly all actives have a fitted effect of over 45% in size;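 as to cytoprotection (ATP increase): toxic huntingtin expression switched on by the ecdysone agonist tebufenozide; % of control where 0% means no effect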
Conditions: PC12 HTT-Q103 induced, ATP luminescence, 40 h; cytoprotection (ATP increase): at 56.4 µM (top of the series) unless noted
Summary of the method: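 Stable PC12 Q103-GFP cells in serum-supplemented, phenol red-free DMEM; induction by tebufenozide at 100 nM final; compound dose series; cell viability quantified luminescently from ATP.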
With `Cc1cc(C(=O)CN2C(=O)C(=O)N(Cc3ccccc3)C2=O)c(C)n1-c1ccccc1F` the Potency was inconclusive: 0.1 µM [activator, full curve, poor fit].
With `NC(=O)c1sc2nc(N3CCCCC3)c3c(c2c1N)CCCC3` the cytoprotection (ATP increase) was inactive: 2.9% [at 10 µM].
With `COC(=O)c1nn(-c2ccc(-c3ccccc3)cc2)cc1O` the Potency was inconclusive: 0.891 µM [activator, single point].
With `Cc1cc(C)n(-c2nc(C)nc(N)n2)n1` the “cytoprotection (ATP increase)” value was inactive: 7.08%.
For `C/C(=N\S(=O)(=O)c1ccc(C)cc1)N1CCN(S(=O)(=O)c2ccccc2)C1`, the Potency was inconclusive: 1.12 µM [activator, single point].
In the case of `C/C(=N\NC(=O)CCCNc1ccccc1)c1ccncc1`, the Potency is reported as inconclusive: 1.26 µM [activator, single point].
For `COc1cc(/C=C/C(=O)CC(=O)/C=C/c2ccc(O)c(OC)c2)ccc1O`, the Potency was inconclusive: 20 µM [activator, single point].
With `CC1(C)C(=O)CC[C@@]2(C)C1CC(O)[C@@]1(C)C3=CC(=O)OC(c4ccoc4)[C@]3(C)CCC21` (stereo partly drawn) the Potency was inconclusive: 1.41 µM [activator, partial curve, poor fit].
With `CCN(CC)/C(Sc1ccccc1)=C(/C(Cl)=C(Cl)Cl)[N+](=O)[O-]` the Potency was inconclusive: 12.6 µM [activator, single point].
For `O=C(Nc1ccc(F)cc1)c1cc(S(=O)(=O)N2CCCCC2)cs1`, the “cytoprotection (ATP increase)” value was inactive: -8.6%.
In the case of `CCOc1ccc(NC(=S)Nc2ccc(OCC)cc2)cc1`, the Potency is reported as inconclusive: 25.1 µM [activator, partial curve, poor fit].
With `CC(=O)O[C@H]1C2=CO[C@H](C)[C@H]3[C@H]4C5=C([C@H](O)[C@H]6O[C@@H]6C5=O)[C@H](O[C@H]4C)[C@@]23C(=O)[C@H]2O[C@@H]21` the Potency was inconclusive: 6.31 µM [activator, partial curve, poor fit].
For `O=Nc1ccc(NOC(=O)c2ccccc2)cc1`, the cytoprotection (ATP increase) was inactive: -6.36% [at 10 µM].
For `COc1ccc(CCNC(=O)c2ccc(C)s2)cc1OC`, the cytoprotection (ATP increase) was inactive: -26.2% [at 1.9 µM].
With `CC(C)=NNC(=O)c1c(O)c2ccccc2[nH]c1=O` the cytoprotection (ATP increase) was inactive: 14.6% [at 10 µM].
With `COc1ccc(CN2CN(c3ccc(Cl)cc3)C(=O)N(n3cnnc3)C2)cc1` the Potency was inconclusive: 3.16 µM [activator, single point].
With `Cc1ccnc(NC(=O)CCC(=O)N(CC(=O)NCc2ccccc2)Cc2cccs2)c1` the Potency was inconclusive: 0.891 µM [activator, single point].
In the case of `CC(CN1C(C)CCCC1C)OC(=O)c1ccccc1Cl` (stereo not drawn), the Potency is reported as inconclusive: 0.631 µM [activator, single point].
With `NCC[C@H](O)C(=O)N[C@@H]1C[C@H](N)[C@@H](O[C@H]2O[C@H](CN)[C@@H](O)[C@H](O)[C@H]2O)[C@H](O)[C@H]1O[C@H]1O[C@H](CO)[C@@H](O)[C@H](N)[C@H]1O` the Potency was inconclusive: 0.1 µM [activator, partial curve, poor fit].
For `Cn1ccnc1C(=O)c1cc(=O)c2ccccc2o1`, the Potency was inconclusive: 5.01 µM [activator, single point].
With `Nc1nccc(-c2cccs2)n1` the cytoprotection (ATP increase) was inactive: 9.91% [at 10 µM].
With `O=C1c2ccccc2C(=O)N1c1n[nH]c(CCc2ccccc2)n1` the “cytoprotection (ATP increase)” value was inactive: 13.1%.
In the case of `O=C(O)c1ccc(CO)o1`, the “cytoprotection (ATP increase)” value is reported as inactive: -1.62%.
With `Cc1ccc2cc3cc(C(=O)N(CC(=O)NC4CCCC4)c4cccc(C)c4C)sc3nc2c1` the Potency was active: 3.16 µM.
With `CCCCCCN(CCCCCC)C(=O)Cc1c(-c2ccc(Cl)cc2)[nH]c2ccc(Cl)cc12` the Potency was inconclusive: 1.41 µM [activator, single point].
In the case of `CCCCCCCCN1C(=O)C(O)=C(C(C)=O)C1c1ccccn1` (stereo not drawn), the cytoprotection (ATP increase) is reported as inactive: 3.13% [at 10 µM].
With `Cc1ccc(CNC(=O)CSc2c3c(nc4ccc(Cl)cc24)CCCC3)o1` the Potency was inconclusive: 10 µM [activator, partial curve, poor fit].
With `Cn1nc(SCC(=O)O)sc1=S` the “cytoprotection (ATP increase)” value was inactive: -2.72%.
For `COCCOc1cc(N(CC(=O)N(C)C)S(=O)(=O)c2ccccc2)c(Cl)cc1Cl`, the Potency was inconclusive: 2.51 µM [activator, single point].
With `CCN(CC)C(=O)Oc1ccc(OC(=O)N(CC)CC)cc1` the Potency was inconclusive: 35.5 µM [activator, single point].
In the case of `CNC(=O)CSc1ncnc2c1cnn2-c1ccccc1`, the Potency is reported as inconclusive: 17.8 µM [activator, partial curve].
With `Cc1cccc(NC(=O)Cn2c([N+](=O)[O-])cnc2C)c1C` the Potency was inconclusive: 0.891 µM [activator, partial curve].
With `CCCCCCCCCCS(=O)(=O)N/N=C/c1ccc([N+](=O)[O-])cc1` the “cytoprotection (ATP increase)” value was inactive: -47.2%.
In the case of `CC(=O)c1cccc(CN2CCN(Cc3ccc(C)cc3)C(CCO)C2)c1` (stereo not drawn), the “cytoprotection (ATP increase)” value is reported as inactive: -22.2%.
In the case of `Cc1ccc(CNc2nc(-c3cccs3)nc3ccccc23)cc1`, the Potency is reported as inconclusive: 1.26 µM [activator, single point].
With `COc1cc(-c2noc(-c3cccc(Cl)c3)n2)cc(OC)c1OC` the Potency was inconclusive: 14.1 µM [activator, single point].
With `Fc1ccccc1-n1cc(-c2ccccc2)[nH]c1=S` the cytoprotection (ATP increase) was inactive: -3.54% [at 10 µM].
In the case of `COc1ccc([C@@H]2[C@H]3C(=O)N(c4cccc(C(F)(F)F)c4)C(=O)[C@H]3ON2C)cc1`, the cytoprotection (ATP increase) is reported as inactive: 5.08% [at 10 µM].
In the case of `COc1cc(CNn2cn[nH]c2=S)cc(Cl)c1OCc1ccc(F)cc1`, the Potency is reported as inconclusive: 5.62 µM [activator, partial curve, poor fit].
In the case of `CC(=O)C(Cc1cccc(F)c1)(Cc1cccc(F)c1)C(C)=O`, the Potency is reported as inconclusive: 5.62 µM [activator, single point].
For `COc1ccccc1NC(=O)N1CCN(c2cc(-c3ccccc3)nc3ncnn23)CC1`, the Potency was inconclusive: 0.794 µM [activator, single point].
In the case of `COc1cc(O)oc1C=Nc1ccccc1`, the Potency is reported as inconclusive: 2.51 µM [activator, partial curve].
In the case of `COc1cc(C)c(Br)cc1S(=O)(=O)NCCN1CCOCC1`, the Potency is reported as inconclusive: 1.26 µM [activator, partial curve].
Potency is read from the fitted curve at half-maximal effect.
